The list is a part of this screen's results and no random one: its compounds were picked by chemical class. Other doses and runs of a compound may be missing. T/C is the treated group as % of the vehicle group. Schedule codes are those of the source, taken here to give the interval after Q, in days (D) or hours (H), and the number of doses after X. Some T/C values carry the count of animals alive at the toxicity check; where neither a count nor a note follows, no animal had died by that day. Some entries give survivors of the animals treated and no T/C: the source files T/C as zero there, which appears to mark a toxic dose or a test without result, not a measured value. Counts of survivors are from the toxicity check, whose day is not always given; animals may have died later.

The assay relates to LX-1 lung xenograft sc, nude mice, tumor weight. As to the kind of experiment: NCI In Vivo Anticancer Drug Screen. Data for tumor model Human Lung LX-1 Xenograft (subcutaneous) in NU/NU Swiss (nude) mice. The conditions noted are these: T/C endpoint: optimum tumor weight change, schedule: Q04DX003 (ip), higher T/C = larger tumour. On the procedure: The antitumor activity of compounds was measured in mice bearing transplantable tumors. Survival or tumor size were measured and the results are expressed as the measurement made in the treated group (T) divided by the measurement made in the vehicle treated control group (C). The tumor model used in this assay is Human Lung LX-1 Xenograft (subcutaneous) in NU/NU Swiss (nude) mice

As for `CC1(C)CN1P(=O)(Nc1ncccn1)N1CC1(C)C` (stereo not given), the T/C by setting is: (dose: 50.0 mg/kg/injection, vehicle: saline, evaluated on day 40) 67 % of control; (dose: 100.0 mg/kg/injection, vehicle: saline, evaluated on day 40) 44 % of control [4 of 5 alive on day 40]; (dose: 200.0 mg/kg/injection, vehicle: saline, evaluated on day 40) 44 % of control. In addition, the survivor count (dose: 400.0 mg/kg/injection, vehicle: saline) is recorded as 0 of 5 on day 40.

Consider `C[As](C)SC1OC(CO)C(O)C(O)C1O` (stereo not given), for which the T/C was 49 % of control [4 of 5 alive on day 34] (dose: 3.0 mg/kg/injection, vehicle: saline, evaluated on day 34) and 72 % of control (dose: 12.0 mg/kg/injection, vehicle: saline, evaluated on day 34). Further, the survivor count (dose: 6.0 mg/kg/injection, vehicle: saline) is given as 3 of 5 on day 34.

For the compound `Nc1cc([As]=O)ccc1O` (stereo not given), the T/C (dose: 50.0 mg/kg/injection, vehicle: saline with Tween-80, evaluated on day 38) is 88 % of control. The survivor count is 2 of 5 on day 38 (dose: 100.0 mg/kg/injection, vehicle: saline with Tween-80) and 0 of 5 on day 38 (dose: 200.0 mg/kg/injection, vehicle: saline with Tween-80).

The values above are taken from PubChem BioAssay AID262 (DTP/NCI, 2004).
